At least one structure is not confirmed: it was looked up by name or label, or the drawing left a doubt.
Columns and labels:
Format in all cases: cell-based, human
[1] = system: CD4 single positive cells; test: Cell surface marker measurement (CD45RA/CD62L); details: Example 7, FIG. 26; 10 nM retinoic acid vs no addition (O-); 10th day
[2] = system: CD8 single positive and CD4 single positive cells; test: Proportion of ZsGreen positive cells by flow cytometry; details: Example 3, FIG. 10; gene transfer by polybrene method; 10 nM retinoic acid; 6th day
[3] = system: CD4 single positive cells; test: IL-4 and IFN-γ-producing cells in response to PMA+ ionomycin stimulation
[4] = system: CD8 single positive cells; test: Cell surface marker measurement (CD45RA/CCR7 or CD45RA/CD62L) by flow cytometry
[5] = system: CD8 single positive and CD4 single positive cells; test: Cell surface marker measurement (CD45RA/CCR7) in ZsGreen gene-transferred cells; details: Example 3, FIG. 8; 10 nM retinoic acid with anti-CD3 antibody alone or fibronectin fragment/anti-CD3 antibody; 7th day
[6] = system: CD8 single positive cells; test: Tetramer assay, expression of transferred MAGE-A4-specific TCR; details: for tetramer positive cell proportion in CD8 single positive cells, rank among groups: Example 5, FIG. 16; for proportion of tetramer positive cells, rank among groups: Example 6, FIG. 23
[7] = system: CD8 single positive cells; test: IL-4, IFN-γ and perforin-producing cells in response to MAGE-A4-derived peptide p143; details: 11th day

CC1=C(/C=C/C(C)=C/C=C/C(C)=C/C(=O)O)C(C)(C)CCC1 [retinoic acid]
little difference: transfer efficiency (proportion of ZsGreen positive cells), presence vs absence of retinoic acid [2]
increased: proportions of central memory T-like cells and effector memory T-like cells [1] | proportions of central memory T-like cells and effector memory T-like cells ([4]; Example 1, FIG. 1, 10 nM retinoic acid combined with anti-CD3 antibody alone or fibronectin fragment/anti-CD3 antibody stimulation, 4 days of culture, vs no retinoic acid) | proportions of central memory T-like cells and effector memory T-like cells ([4]; Example 2, FIG. 3, 10 nM retinoic acid with anti-CD3 antibody alone or fibronectin fragment/anti-CD3 antibody, 4th day) | proportions of central memory T-like cells and effector memory T-like cells ([4]; Example 2, FIG. 4, 10 nM retinoic acid with anti-CD3 antibody alone or fibronectin fragment/anti-CD3 antibody, 7th day) | proportions of central memory T-like cells and effector memory T-like cells ([4]; Example 5, FIG. 17 and 18, CD8 single positive cells and tetramer positive CD8 single positive cells, CD45RA/CD62L, 11th day, retinoic acid added vs no addition (O-)) | proportion of central memory T-like cells and proportion of effector memory T-like cells [5] | proportion of MAGE-A4-specific TCR-expressing cells (tetramer positive cells in CD8 single positive cells) ([6]; Example 2, FIG. 5, 10 nM retinoic acid with anti-CD3 antibody alone or fibronectin fragment/anti-CD3 antibody, 10th day) | expression of the MAGE-A4-specific TCR (tetramer positive proportion), gene transfer efficiency ([6]; Example 4, FIG. 12, 10 nM retinoic acid, anti-CD3 antibody alone group and fibronectin fragment/anti-CD3 antibody group, 11th day) | tetramer expression amount (average fluorescent intensity) in CD8 single positive and tetramer positive cells ([6]; Example 6, FIG. 24, retinoic acid added, particularly OR and RR, compared with O-, 11th day) | proportion of IL-4-producing and IFN-γ-nonproducing cells ([7]; Example 4, FIG. 13, 10 nM retinoic acid) | proportion of perforin-producing cells ([7]; Example 4, FIG. 14, 10 nM retinoic acid)
second highest: tetramer positive cell proportion in CD8 single positive cells, rank among groups ([6]; OR: retinoic acid added only after gene transfer (5th day), 11th day) | proportion of tetramer positive cells, rank among groups ([6]; OR group, 11th day)
higher: Th2/Th1 ratio ([3]; Example 7, FIG. 29, RR compared with OR) | proportion of tetramer positive cells and the expression amount thereof ([6]; Example 6, FIG. 23 and 24, retinoic acid added after gene transfer (OR and RR) vs not added (O- and R-)) | proportion of perforin-producing cells ([7]; Example 5, FIG. 21, adding retinoic acid (order OR, RR, R-, O-))
third highest: tetramer positive cell proportion in CD8 single positive cells, rank among groups ([6]; R-: retinoic acid only until gene transfer (5th day), 11th day) | proportion of tetramer positive cells, rank among groups ([6]; R- group, 11th day)
high: proportion of cells producing IL-4 ([3]; Example 7, FIG. 28, RR and OR groups, 10th day) | proportion of IL-4-producing and IFN-γ-producing cells ([3]; Example 7, RR and OR groups compared with O-, 10th day) | proportions of IL-4-producing and IFN-γ-producing cells ([7]; Example 5, FIG. 19, R-, RR and OR groups compared with O- (no addition))

From patent publication US20120142109A1, “METHOD FOR PRODUCING T CELL POPULATION UNDER PRESENCE OF RETINOIC ACID” (priority 2009, published 2012)
